From paper PMC10058761, “Heart-Type Fatty Acid Binding Protein Binds Long-Chain Acylcarnitines and Protects against Lipotoxicity” (International Journal of Molecular Sciences, 2023)

By UniProt entry, the sequences of proteins in these tests, tags left out.
UniProt P05413, whole entry: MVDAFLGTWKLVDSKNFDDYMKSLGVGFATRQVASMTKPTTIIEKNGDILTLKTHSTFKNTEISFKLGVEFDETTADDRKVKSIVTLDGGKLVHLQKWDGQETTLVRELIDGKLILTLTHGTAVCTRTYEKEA

Biological target: human FABP3 (Homo sapiens, UniProt P05413)
Test: ITC determination of heat capacity change at 16, 25 and 37 °C
Type: binding
Details: KPi with 0.1% TX; ΔH at 16, 25, 37 °C, linear regression

Q: Which ΔCp does the source give for CCCCCCCCCCCC(=O)O [C12:0, laurate] here?
A: The ΔCp was −0.22 kcal∙mol^−1∙K^−1 and −0.21 ± 0.02 kcal∙mol^−1∙K^−1.

Not every entry of the source has a single result; some have several. The list is limited to them. There may be further records. Results that share an entry read as repeated measurements (runs, samples, wells or individuals).
